{"source": "patent US20240173273A1", "about": "(priority 2021, published 2024)", "system": "SARS-COV-2", "assay_type": "cell-based", "note": "For at least one compound, name, drawing or mass did not settle the structure."}
{"smiles": "CCC(CC)COC(=O)[C@H](C)N[P@](=O)(OC[C@H]1O[C@@](C#N)(c2ccc3c(N)ncnn23)[C@H](O)[C@@H]1O)Oc1ccccc1", "note": "[remdesivir]", "values": [{"measurement": "infection of Vero E6 cells by SARS-COV-2", "value": "reduced significantly and dose dependently"}]}
